{"sequences": {"note": "Chains of the proteins cited; added tags and fusions are not shown. Residues count along the entry.", "UniProt Q02763, residues 23-1124": "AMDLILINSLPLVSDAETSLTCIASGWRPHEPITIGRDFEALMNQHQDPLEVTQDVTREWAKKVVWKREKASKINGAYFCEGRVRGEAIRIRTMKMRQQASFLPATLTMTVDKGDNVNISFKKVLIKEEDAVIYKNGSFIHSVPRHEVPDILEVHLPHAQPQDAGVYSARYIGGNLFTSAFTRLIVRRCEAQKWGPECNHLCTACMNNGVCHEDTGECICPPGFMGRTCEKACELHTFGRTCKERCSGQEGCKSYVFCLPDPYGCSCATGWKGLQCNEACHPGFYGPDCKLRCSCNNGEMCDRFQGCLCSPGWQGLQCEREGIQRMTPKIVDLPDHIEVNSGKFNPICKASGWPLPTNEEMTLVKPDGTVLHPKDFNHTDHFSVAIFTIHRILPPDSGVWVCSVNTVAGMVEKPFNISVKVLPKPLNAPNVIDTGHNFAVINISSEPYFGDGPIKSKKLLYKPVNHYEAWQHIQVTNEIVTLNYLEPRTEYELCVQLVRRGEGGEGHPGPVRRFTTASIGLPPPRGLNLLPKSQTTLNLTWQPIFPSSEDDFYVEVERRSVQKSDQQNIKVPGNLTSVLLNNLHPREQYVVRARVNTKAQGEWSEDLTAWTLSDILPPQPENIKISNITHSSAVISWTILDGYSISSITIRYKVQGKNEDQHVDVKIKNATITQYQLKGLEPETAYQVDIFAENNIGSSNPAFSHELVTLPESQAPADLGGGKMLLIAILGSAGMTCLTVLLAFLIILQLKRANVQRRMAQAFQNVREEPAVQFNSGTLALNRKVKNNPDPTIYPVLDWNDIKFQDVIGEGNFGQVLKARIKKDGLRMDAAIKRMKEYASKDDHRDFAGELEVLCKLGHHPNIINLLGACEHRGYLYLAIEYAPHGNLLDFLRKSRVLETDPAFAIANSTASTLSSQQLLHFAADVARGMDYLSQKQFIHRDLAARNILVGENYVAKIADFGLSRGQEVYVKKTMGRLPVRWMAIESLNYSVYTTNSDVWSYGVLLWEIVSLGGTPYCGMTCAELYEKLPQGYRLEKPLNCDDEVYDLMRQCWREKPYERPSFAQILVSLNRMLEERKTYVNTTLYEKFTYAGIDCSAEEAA", "UniProt P35590, residues 22-1138": "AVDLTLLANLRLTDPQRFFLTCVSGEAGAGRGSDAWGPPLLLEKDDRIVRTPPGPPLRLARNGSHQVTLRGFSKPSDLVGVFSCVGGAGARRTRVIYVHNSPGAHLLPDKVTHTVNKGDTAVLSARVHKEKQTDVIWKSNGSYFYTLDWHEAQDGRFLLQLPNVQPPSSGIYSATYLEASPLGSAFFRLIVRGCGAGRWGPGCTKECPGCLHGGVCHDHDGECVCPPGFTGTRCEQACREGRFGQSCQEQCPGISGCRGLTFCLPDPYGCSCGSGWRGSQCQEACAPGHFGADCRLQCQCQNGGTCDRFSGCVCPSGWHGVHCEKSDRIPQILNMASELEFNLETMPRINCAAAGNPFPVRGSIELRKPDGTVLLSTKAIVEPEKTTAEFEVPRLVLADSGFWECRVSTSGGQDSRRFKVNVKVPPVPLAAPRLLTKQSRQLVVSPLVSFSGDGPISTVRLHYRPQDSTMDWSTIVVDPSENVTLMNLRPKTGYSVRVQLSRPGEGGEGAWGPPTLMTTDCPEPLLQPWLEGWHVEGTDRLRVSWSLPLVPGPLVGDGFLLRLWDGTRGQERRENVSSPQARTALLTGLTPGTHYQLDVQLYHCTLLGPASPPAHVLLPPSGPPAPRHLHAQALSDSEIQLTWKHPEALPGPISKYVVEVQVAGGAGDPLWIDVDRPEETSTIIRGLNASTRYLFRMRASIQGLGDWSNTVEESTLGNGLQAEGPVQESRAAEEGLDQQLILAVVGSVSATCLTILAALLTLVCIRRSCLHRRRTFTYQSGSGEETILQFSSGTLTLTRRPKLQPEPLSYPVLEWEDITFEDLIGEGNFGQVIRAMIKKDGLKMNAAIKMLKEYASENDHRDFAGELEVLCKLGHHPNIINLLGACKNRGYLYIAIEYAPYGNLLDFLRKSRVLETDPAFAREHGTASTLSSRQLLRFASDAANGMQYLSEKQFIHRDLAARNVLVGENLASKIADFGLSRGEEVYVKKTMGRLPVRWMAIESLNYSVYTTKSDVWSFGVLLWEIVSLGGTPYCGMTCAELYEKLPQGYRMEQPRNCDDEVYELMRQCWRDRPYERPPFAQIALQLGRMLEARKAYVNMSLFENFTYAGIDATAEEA"}, "source": "paper PMC8233393", "biological_target": "TIE2, the other member of the TIE receptor family (endogenous in HMVECs and ST1 cells) (human (endogenous in HMVEC)) (UniProt Q02763)", "assay": "co-IP; lysates of control HMVECs and of TIE1-overexpressing ST1 cells, untreated or treated with 100 ng/ml TNF-α; immunoprecipitation with anti-TIE2 antibody (R&D Systems) and protein G agarose in a cold room; TIE1 detected by western blot", "note": "Results are given in words; binding and its absence hold for the method and conditions named. In cells and extracts the contact can be indirect. Some entries that bind do so weakly or less than the wild type.", "data": [{"substance": "TIE1 overexpressed from the lentiviral construct pCCL-6HF-TIE1 in HMVECs (clone ST1) (from UniProt P35590 22-1138) (receptor)", "values": [{"measurement": "binding", "value": "binds"}]}, {"substance": "TIE1, endothelial receptor tyrosine kinase (endogenous in HMVECs) (from UniProt P35590 22-1138)", "values": [{"measurement": "binding", "value": "binds"}]}]}
